The results in this text go back to PMC3743865, “The FLT3 Inhibitor Quizartinib Inhibits ABCG2 at Pharmacologically Relevant Concentrations, with Implications for Both Chemosensitization and Adverse Drug Interactions” (PLoS ONE, 2013).

SMILES strings stand for the structures.

Data set [1] has as its target T1, ABCG2 (Homo sapiens, UniProt Q9UNQ0).
T1 sequence (Q9UNQ0 1-655): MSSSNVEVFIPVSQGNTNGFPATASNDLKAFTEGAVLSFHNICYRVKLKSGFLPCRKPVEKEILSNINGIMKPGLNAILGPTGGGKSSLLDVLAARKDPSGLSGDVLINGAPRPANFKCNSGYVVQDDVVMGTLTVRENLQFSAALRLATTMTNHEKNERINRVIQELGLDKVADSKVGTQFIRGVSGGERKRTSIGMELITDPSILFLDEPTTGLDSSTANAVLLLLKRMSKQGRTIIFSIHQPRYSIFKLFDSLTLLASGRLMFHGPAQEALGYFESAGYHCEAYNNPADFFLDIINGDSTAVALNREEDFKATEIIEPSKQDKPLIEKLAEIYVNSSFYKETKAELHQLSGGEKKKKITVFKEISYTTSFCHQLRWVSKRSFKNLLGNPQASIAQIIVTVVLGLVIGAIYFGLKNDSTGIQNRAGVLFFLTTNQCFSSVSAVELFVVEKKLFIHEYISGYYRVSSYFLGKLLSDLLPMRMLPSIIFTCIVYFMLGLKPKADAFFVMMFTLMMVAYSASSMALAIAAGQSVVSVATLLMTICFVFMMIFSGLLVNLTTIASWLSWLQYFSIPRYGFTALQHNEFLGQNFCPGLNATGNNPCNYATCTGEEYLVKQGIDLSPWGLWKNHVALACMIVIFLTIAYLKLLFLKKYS
As to the kind of experiment: inhibition of pheophorbide A and ciprofloxacin transport in ABCG2-overexpressing cells ([…] positive control). It is filed as cell-based. Details: wild-type ABCG2 overexpressed in K562/ABCG2 and 8226/MR20 cells.

Data set [2] has as its target T1, ABCG2.

Turning to `COc1ccc2c3c([nH]c2c1)[C@H](C=C(C)C)N1C(=O)[C@@H]2CCCN2C(=O)[C@@H]1C3` [fumitremorgin C], the “inhibition of pheophorbide A and ciprofloxacin transport in ABCG2-overexpressing” value against ABCG2 [1] is “with the ABCB1 modulator PSC-833 and ABCG2 modulator fumitremorgin C (FTC) as positive controls”.
Consider `O=C(O)c1cn(C2CC2)c2cc(N3CCNCC3)c(F)cc2c1=O` [ciprofloxacin], for which the “cellular accumulation by fluorescence with and without ABCG2 inhibitors” value at ABCG2 [2] was “demonstrated that quizartinib increased ciprofloxacin accumulation in a concentration-dependent manner”.
